The other results are listed elsewhere or left out.
Assays:
Test in all cases: log2 fold change, soluble protein after heating vs DMSO (PISA); higher = thermal stabilisation; K562 cells, 10 uM, 30 min; active = over 0.2 and 3.5 SD of the protein, either way, in both replicates (recomputed)
[1] = compound: CS(=O)(=O)c1ccc(-c2cnc(N)c(C(=O)Nc3ccccc3)n2)cc1
Outline: (§1)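 Quantification of soluble protein used TMTpro 16plex LC-MS/MS, with channel sums equalised. Samples were the supernatant after 21,000xg for 90 min of pooled aliquots from K562 cells (2×10^6 cells/mL) treated with 10 μM compound for 30 min, heated for 3 min over 48°C-58°C, and extracted in PBS with 0.5% NP-40 at 4°C. Values, from duplicates, describe thermal stability against control samples on a log2 fold-change scale.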

Amino acid sequences for entries named in this document (tags omitted). A change or cut given only in a name is not applied to a line headed by its entry.
UniProt Q9BVA1, whole entry, looked up: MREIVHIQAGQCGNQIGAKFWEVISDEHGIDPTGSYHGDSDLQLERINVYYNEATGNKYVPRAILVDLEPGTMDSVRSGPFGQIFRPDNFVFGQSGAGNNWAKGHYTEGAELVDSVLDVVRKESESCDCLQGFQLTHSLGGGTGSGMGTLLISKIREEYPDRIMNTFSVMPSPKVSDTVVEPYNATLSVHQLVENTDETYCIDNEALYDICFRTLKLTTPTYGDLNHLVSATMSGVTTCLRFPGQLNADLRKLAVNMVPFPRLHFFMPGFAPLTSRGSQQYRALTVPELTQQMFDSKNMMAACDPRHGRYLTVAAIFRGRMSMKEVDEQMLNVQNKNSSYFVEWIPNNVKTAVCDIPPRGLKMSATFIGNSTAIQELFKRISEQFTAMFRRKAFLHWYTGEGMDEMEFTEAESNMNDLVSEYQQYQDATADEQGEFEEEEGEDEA
UniProt Q9UGJ1, whole entry, looked up: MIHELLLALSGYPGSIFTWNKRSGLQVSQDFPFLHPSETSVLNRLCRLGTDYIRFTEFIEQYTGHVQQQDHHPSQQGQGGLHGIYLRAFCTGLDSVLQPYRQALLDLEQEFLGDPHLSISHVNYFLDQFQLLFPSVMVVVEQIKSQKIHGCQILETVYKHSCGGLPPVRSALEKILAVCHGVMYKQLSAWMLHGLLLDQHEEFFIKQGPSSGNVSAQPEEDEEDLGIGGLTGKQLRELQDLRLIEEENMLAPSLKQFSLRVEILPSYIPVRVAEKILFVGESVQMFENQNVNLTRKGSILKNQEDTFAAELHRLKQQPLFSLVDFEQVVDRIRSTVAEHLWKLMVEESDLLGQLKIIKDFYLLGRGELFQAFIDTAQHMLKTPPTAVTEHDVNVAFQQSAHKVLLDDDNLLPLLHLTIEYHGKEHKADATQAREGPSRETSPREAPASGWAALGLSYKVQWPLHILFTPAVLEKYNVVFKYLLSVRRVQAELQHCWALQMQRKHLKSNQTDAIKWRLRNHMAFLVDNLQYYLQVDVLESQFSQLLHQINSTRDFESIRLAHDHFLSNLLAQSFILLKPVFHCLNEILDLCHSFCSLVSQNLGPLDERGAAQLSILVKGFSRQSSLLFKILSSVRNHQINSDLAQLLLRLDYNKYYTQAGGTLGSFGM
UniProt A6NNZ2, whole entry, looked up: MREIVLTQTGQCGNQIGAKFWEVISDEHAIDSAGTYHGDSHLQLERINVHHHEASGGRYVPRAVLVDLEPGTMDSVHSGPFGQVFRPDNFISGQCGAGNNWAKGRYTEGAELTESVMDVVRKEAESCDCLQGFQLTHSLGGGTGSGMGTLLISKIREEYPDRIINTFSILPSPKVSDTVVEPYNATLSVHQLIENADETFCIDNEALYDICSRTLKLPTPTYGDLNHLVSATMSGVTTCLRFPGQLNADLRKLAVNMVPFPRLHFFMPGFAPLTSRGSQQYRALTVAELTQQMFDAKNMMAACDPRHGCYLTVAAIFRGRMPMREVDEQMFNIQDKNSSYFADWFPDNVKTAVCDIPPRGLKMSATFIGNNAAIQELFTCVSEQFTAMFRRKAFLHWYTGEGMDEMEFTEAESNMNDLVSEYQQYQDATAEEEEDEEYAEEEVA
UniProt A6NHL2: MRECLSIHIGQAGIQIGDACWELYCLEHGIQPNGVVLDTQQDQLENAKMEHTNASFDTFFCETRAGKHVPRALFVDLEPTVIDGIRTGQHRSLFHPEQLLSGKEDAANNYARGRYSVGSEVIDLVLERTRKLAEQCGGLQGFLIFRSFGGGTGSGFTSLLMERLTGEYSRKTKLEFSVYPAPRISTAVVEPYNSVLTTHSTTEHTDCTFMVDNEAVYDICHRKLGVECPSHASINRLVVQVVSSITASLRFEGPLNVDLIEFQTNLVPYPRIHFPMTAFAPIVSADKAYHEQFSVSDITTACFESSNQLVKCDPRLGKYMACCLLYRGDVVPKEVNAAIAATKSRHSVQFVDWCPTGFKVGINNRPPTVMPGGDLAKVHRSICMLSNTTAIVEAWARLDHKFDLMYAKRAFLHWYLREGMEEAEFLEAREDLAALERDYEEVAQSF
UniProt Q6PID6, whole entry, looked up: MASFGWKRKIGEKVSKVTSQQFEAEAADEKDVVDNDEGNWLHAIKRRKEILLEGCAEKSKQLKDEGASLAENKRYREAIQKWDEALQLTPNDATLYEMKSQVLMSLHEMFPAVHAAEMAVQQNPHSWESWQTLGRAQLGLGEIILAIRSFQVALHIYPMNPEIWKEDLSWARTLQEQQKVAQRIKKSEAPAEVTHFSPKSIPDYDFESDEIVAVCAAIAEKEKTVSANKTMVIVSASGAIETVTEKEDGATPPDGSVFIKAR
UniProt Q7Z7E8: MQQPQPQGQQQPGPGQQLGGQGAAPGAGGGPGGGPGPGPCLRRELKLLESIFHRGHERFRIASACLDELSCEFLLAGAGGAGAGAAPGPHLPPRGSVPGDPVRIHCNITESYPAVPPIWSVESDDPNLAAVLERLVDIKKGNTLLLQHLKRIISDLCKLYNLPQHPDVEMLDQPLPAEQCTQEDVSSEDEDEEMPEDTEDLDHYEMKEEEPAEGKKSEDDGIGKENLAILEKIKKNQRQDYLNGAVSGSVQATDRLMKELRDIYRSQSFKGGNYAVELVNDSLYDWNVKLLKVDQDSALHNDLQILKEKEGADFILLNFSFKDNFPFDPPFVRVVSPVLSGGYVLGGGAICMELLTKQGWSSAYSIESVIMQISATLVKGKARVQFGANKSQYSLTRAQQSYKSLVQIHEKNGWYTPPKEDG
UniProt P51965: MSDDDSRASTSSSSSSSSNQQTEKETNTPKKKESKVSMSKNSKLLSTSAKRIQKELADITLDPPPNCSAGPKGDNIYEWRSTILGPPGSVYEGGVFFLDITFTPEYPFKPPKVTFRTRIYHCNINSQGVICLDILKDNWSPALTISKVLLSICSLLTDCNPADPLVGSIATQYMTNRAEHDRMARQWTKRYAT
UniProt Q9H3M7: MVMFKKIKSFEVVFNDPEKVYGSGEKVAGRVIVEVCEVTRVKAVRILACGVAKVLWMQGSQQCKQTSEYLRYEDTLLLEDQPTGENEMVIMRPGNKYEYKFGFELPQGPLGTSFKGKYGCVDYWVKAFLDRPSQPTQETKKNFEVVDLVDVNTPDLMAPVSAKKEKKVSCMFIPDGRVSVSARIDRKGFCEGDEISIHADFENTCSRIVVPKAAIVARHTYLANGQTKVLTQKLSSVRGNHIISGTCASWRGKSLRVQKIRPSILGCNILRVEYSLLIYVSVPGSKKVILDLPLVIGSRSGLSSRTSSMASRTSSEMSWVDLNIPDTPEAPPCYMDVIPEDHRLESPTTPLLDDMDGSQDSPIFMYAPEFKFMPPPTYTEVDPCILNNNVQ
UniProt P43897: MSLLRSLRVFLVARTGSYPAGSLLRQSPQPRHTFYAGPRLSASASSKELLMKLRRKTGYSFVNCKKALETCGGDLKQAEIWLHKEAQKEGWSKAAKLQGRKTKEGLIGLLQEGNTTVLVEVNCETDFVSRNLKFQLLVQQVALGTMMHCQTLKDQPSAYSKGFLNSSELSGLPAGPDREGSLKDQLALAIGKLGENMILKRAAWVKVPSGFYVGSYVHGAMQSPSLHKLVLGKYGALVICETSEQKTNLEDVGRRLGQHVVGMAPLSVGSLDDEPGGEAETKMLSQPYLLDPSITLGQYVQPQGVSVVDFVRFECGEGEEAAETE

[2] = compound: C[C@@H](Oc1cc(-c2cnn(C3CCNCC3)c2)cnc1N)c1c(Cl)ccc(F)c1Cl [crizotinib]
Outline: as §1

[3] = compound: C[C@H](C1=CC=C(C=C1)C(=O)NC2=C3C=CNC3=NC=C2)N
Outline: as §1

[4] = compound: C[C@H](Nc1ncnc2nc[nH]c12)c1cc2cccc(Cl)c2c(=O)n1-c1ccccc1 [duvelisib]
Outline: as §1

[5] = compound: Cc1cc(Nc2cc(CN3CCOCC3)c3nc(C)c(Cc4ccc(Cl)cc4F)n3n2)n[nH]1 [gandotinib]
Outline: as §1

[6] = compound: Cc1cc(Nc2cc(N3CCN(C)CC3)nc(Sc3ccc(NC(=O)C4CC4)cc3)n2)n[nH]1 [tozasertib]
Outline: as §1

[7] = compound: Cc1cc(SCc2sc(-c3ccc(C(F)(F)F)cc3)nc2C)ccc1OCC(=O)O
Outline: as §1

[8] = compound: Cc1ccc(-n2nc(C(C)(C)C)cc2NC(=O)Nc2ccc(OCCN3CCOCC3)c3ccccc23)cc1 [doramapimod]
Outline: as §1

[9] = compound: Cc1ccc(C(=O)N(CCCN)[C@@H](c2nc3cc(Cl)ccc3c(=O)n2Cc2ccccc2)C(C)C)cc1 [ispinesib]
Outline: as §1

[10] = compound: Cc1ccc(NC(=O)c2ccc(CN3CC[C@H](N(C)C)C3)c(C(F)(F)F)c2)cc1Nc1nccc(-c2cncnc2)n1 [bafetinib]
Outline: as §1

[11] = compound: Cc1cccc(CC(=O)N2CCc3c2ccc(-c2cn(C)c4ncnc(N)c24)c3F)n1
Outline: as §1

[12] = compound: Cc1cn(-c2cc(NC(=O)c3ccc(C)c(Nc4nccc(-c5cccnc5)n4)c3)cc(C(F)(F)F)c2)cn1 [nilotinib]
Outline: as §1

[13] = compound: Cc1nc(Nc2n[nH]c3c2CN(C(=O)N[C@H](CN(C)C)c2ccccc2)C3(C)C)c2sccc2n1
Outline: as §1

[14] = compound: Cc1nc(Nc2ncc(C(=O)Nc3c(C)cccc3Cl)s2)cc(N2CCN(CCO)CC2)n1 [dasatinib]
Outline: as §1

[15] = compound: Cc1ncc(-c2ccnc(Nc3ccc(S(C)(=O)=O)cc3)n2)n1C(C)C
Outline: as §1

[16] = compound: Cn1cc(-c2ccc3c(c2)CCN3C(=O)Cc2cccc(C(F)(F)F)c2)c2c(N)ncnc21
Outline: as §1

[17] = compound: Cn1cc(-c2ccc3nnc(C(F)(F)c4ccc5ncccc5c4)n3n2)cn1
Outline: as §1

[18] = compound: Cn1cncc1[C@@](N)(c1ccc(Cl)cc1)c1ccc2c(c1)c(-c1cccc(Cl)c1)cc(=O)n2C [tipifarnib]
Outline: as §1

[19] = compound: C[C@@H]1COCCN1C2=NC(=NC(=C2)C3(CC3)S(=O)(=O)C)C4=C5C=CNC5=CC=C4
Outline: as §1

[20] = compound: FC(F)(F)c1ccc(/C=C/c2nc(COc3ccc(CCCCn4ccnn4)cc3)co2)cc1 [mubritinib]
Outline: as §1

With TUBB2B (UniProt Q9BVA1) the log2 fold change [1] was inactive: 0.092, the log2 fold change [2] was inactive: 0.165 and the log2 fold change [3] was inactive: 0.04. For the same target, the log2 fold change [4] was inactive: -0.116, the log2 fold change [5] was inactive: 0.097 and the log2 fold change [6] was inactive: 0.048. For the same target, the log2 fold change [7] was inactive: 0.1, the log2 fold change [8] was inactive: -0.013 and the log2 fold change [9] was inactive: -0.071. For the same target, the log2 fold change [10] was inactive: -0.093, the log2 fold change [11] was inactive: 0.014 and the log2 fold change [12] was inactive: 0.031. For the same target, the log2 fold change [13] was inactive: 0.002, the log2 fold change [14] was inactive: 0.067 and the log2 fold change [15] was inactive: 0.019. For the same target, the log2 fold change [16] was inactive: -0.144, the log2 fold change [17] was inactive: -0.031 and the log2 fold change [18] was inactive: -0.008.

In the case of TUBGCP4 (UniProt Q9UGJ1), the log2 fold change [1] is reported as inactive: 0.132, the log2 fold change [2] is reported as inactive: -0.071 and the log2 fold change [3] is reported as inactive: 0.407. The log2 fold change [4] was inactive: -0.064, the log2 fold change [6] was inactive: 0.086 and the log2 fold change [7] was inactive: 0.475. The log2 fold change [8] was inactive: 0.033, the log2 fold change [9] was inactive: -0.011 and the log2 fold change [10] was inactive: 0.014. The log2 fold change [14] was inactive: -0.098, the log2 fold change [16] was inactive: -0.118 and the log2 fold change [17] was inactive: -0.155. For the same target, the log2 fold change [18] was inactive: -0.088.

For TUBB8B (UniProt A6NNZ2), the log2 fold change [1] was inactive: -0.078, the log2 fold change [2] was inactive: -0.182 and the log2 fold change [19] was inactive: 0.017. For the same target, the log2 fold change [3] was inactive: -0.061, the log2 fold change [6] was inactive: -0.19 and the log2 fold change [8] was inactive: 0. The log2 fold change [9] was inactive: -0.014, the log2 fold change [10] was inactive: 0.027 and the log2 fold change [12] was inactive: 0.066. The log2 fold change [13] was inactive: 0.054, the log2 fold change [15] was inactive: -0.038 and the log2 fold change [16] was inactive: 0.086. The log2 fold change [17] was inactive: -0.006 and the log2 fold change [20] was inactive: 0.038.

With TUBAL3 (UniProt A6NHL2) the log2 fold change [1] was inactive: -0.097, the log2 fold change [2] was inactive: -0.128 and the log2 fold change [19] was inactive: 0.161. For the same target, the log2 fold change [3] was inactive: 0.02, the log2 fold change [5] was inactive: -0.165 and the log2 fold change [7] was inactive: -0.02. For the same target, the log2 fold change [8] was inactive: 0.113, the log2 fold change [9] was inactive: -0.108 and the log2 fold change [10] was inactive: 0.167. The log2 fold change [11] was inactive: 0.049, the log2 fold change [12] was inactive: -0.144 and the log2 fold change [13] was inactive: 0.027. For the same target, the log2 fold change [14] was inactive: 0.051, the log2 fold change [15] was inactive: -0.029 and the log2 fold change [16] was inactive: 0.005. The log2 fold change [17] was inactive: -0.095, the log2 fold change [18] was inactive: -0.097 and the log2 fold change [20] was inactive: -0.01.

In the case of TTC33 (UniProt Q6PID6), the log2 fold change [1] is reported as inactive: 0.056, the log2 fold change [2] is reported as inactive: -0.399 and the log2 fold change [19] is reported as inactive: -0.113. For the same target, the log2 fold change [3] was inactive: 0.146, the log2 fold change [5] was inactive: -0.192 and the log2 fold change [7] was inactive: -0.06. The log2 fold change [8] was inactive: -0.15, the log2 fold change [9] was inactive: -0.095 and the log2 fold change [10] was inactive: 0.049. The log2 fold change [11] was inactive: 0.181, the log2 fold change [14] was inactive: 0.043 and the log2 fold change [16] was inactive: -0.084. The log2 fold change [17] was inactive: -0.069, the log2 fold change [18] was inactive: -0.03 and the log2 fold change [20] was inactive: 0.113.

In the case of UBE2Q1 (UniProt Q7Z7E8), the log2 fold change [1] is reported as inactive: 0, the log2 fold change [2] is reported as inactive: -0.061 and the log2 fold change [19] is reported as inactive: 0.092. For the same target, the log2 fold change [3] was inactive: 0.004, the log2 fold change [5] was inactive: -0.196 and the log2 fold change [7] was inactive: 0.07. For the same target, the log2 fold change [8] was inactive: 0.029, the log2 fold change [9] was inactive: -0.001 and the log2 fold change [10] was inactive: -0.029. For the same target, the log2 fold change [11] was inactive: 0.015, the log2 fold change [12] was inactive: -0.134 and the log2 fold change [13] was inactive: -0.103. For the same target, the log2 fold change [14] was inactive: -0.101, the log2 fold change [15] was inactive: -0.046 and the log2 fold change [16] was inactive: -0.012. For the same target, the log2 fold change [17] was inactive: 0.027, the log2 fold change [18] was inactive: -0.103 and the log2 fold change [20] was inactive: 0.006.

In the case of UBE2E1 (UniProt P51965), the log2 fold change [1] is reported as inactive: -0.09, the log2 fold change [2] is reported as inactive: -0.144 and the log2 fold change [19] is reported as inactive: 0.139. The log2 fold change [4] was inactive: 0.033, the log2 fold change [5] was inactive: -0.062 and the log2 fold change [6] was inactive: 0.026. For the same target, the log2 fold change [7] was inactive: 0.109, the log2 fold change [8] was inactive: 0.022 and the log2 fold change [9] was inactive: -0.097. The log2 fold change [10] was inactive: -0.003, the log2 fold change [11] was inactive: -0.048 and the log2 fold change [12] was inactive: -0.071. For the same target, the log2 fold change [13] was inactive: 0.018, the log2 fold change [14] was inactive: -0.05 and the log2 fold change [15] was inactive: 0.031. The log2 fold change [17] was inactive: 0.228, the log2 fold change [18] was inactive: -0.133 and the log2 fold change [20] was inactive: 0.138.

For TXNIP (UniProt Q9H3M7), the log2 fold change [1] was inactive: 0.05, the log2 fold change [2] was inactive: -0.36 and the log2 fold change [19] was inactive: -0.103. The log2 fold change [3] was inactive: -0.188, the log2 fold change [5] was inactive: -0.068 and the log2 fold change [7] was inactive: 0.01. The log2 fold change [8] was inactive: 0.113, the log2 fold change [9] was inactive: -0.087 and the log2 fold change [10] was inactive: 0.03. For the same target, the log2 fold change [11] was inactive: -0.072, the log2 fold change [12] was inactive: 0.018 and the log2 fold change [13] was inactive: 0.185. The log2 fold change [14] was inactive: 0.005, the log2 fold change [15] was inactive: -0.264 and the log2 fold change [16] was inactive: 0.105. For the same target, the log2 fold change [17] was inactive: -0.105, the log2 fold change [18] was inactive: 0.199 and the log2 fold change [20] was inactive: -0.264.

For TSFM (UniProt P43897), the log2 fold change [1] was inactive: -0.083, the log2 fold change [2] was inactive: 0.171 and the log2 fold change [19] was inactive: 0.152. For the same target, the log2 fold change [3] was inactive: -0.104, the log2 fold change [5] was inactive: -0.083 and the log2 fold change [7] was inactive: 0.095. The log2 fold change [8] was inactive: -0.095, the log2 fold change [9] was active: 0.398 and the log2 fold change [10] was inactive: 0.091. For the same target, the log2 fold change [11] was inactive: -0.087, the log2 fold change [12] was inactive: 0.062 and the log2 fold change [13] was inactive: -0.217. The log2 fold change [14] was inactive: -0.143, the log2 fold change [15] was inactive: 0.039 and the log2 fold change [16] was inactive: 0.033. The log2 fold change [17] was inactive: 0.033, the log2 fold change [18] was inactive: 0.013 and the log2 fold change [20] was active: -0.36.
